Assay in all cases: two-hybrid; LexA/AD system in yeast strain EGY48 plus H18; SD/-Ura/-Trp/-His, then raffinose, galactose and X-gal for blue color development
Test [1] concerns the target T1, BRC1 (yeast two-hybrid fusion) (Arabidopsis thaliana) (UniProt A1YKT1).
T1 sequence: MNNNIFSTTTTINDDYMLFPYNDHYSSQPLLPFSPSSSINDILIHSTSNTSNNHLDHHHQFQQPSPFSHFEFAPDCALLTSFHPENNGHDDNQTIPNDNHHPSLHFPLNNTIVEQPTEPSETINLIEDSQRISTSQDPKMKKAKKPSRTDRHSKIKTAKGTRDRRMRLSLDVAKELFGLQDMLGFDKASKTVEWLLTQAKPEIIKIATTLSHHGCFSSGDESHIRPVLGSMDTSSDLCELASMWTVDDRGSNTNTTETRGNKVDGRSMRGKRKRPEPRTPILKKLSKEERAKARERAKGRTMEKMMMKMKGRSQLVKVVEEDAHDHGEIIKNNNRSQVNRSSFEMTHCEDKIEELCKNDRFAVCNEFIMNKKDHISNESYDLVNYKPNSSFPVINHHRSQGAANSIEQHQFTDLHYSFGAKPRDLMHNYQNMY

Test [2] deals with T2, SPL9 (yeast two-hybrid fusion) (Arabidopsis thaliana) (UniProt Q700W2).
T2 sequence: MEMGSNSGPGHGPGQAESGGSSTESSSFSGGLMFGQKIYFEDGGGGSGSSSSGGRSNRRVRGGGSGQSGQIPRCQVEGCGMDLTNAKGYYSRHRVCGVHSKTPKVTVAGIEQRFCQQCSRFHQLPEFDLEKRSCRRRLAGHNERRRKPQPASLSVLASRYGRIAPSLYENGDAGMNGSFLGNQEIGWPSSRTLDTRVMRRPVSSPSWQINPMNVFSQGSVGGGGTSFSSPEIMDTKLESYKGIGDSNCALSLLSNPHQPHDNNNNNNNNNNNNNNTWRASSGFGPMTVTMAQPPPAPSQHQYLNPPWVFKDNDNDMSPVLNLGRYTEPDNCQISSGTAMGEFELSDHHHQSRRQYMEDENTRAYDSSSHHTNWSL

The target of test [3] is T3, SMXL7 (yeast two-hybrid fusion) (Arabidopsis thaliana) (UniProt O80875).
T3 sequence: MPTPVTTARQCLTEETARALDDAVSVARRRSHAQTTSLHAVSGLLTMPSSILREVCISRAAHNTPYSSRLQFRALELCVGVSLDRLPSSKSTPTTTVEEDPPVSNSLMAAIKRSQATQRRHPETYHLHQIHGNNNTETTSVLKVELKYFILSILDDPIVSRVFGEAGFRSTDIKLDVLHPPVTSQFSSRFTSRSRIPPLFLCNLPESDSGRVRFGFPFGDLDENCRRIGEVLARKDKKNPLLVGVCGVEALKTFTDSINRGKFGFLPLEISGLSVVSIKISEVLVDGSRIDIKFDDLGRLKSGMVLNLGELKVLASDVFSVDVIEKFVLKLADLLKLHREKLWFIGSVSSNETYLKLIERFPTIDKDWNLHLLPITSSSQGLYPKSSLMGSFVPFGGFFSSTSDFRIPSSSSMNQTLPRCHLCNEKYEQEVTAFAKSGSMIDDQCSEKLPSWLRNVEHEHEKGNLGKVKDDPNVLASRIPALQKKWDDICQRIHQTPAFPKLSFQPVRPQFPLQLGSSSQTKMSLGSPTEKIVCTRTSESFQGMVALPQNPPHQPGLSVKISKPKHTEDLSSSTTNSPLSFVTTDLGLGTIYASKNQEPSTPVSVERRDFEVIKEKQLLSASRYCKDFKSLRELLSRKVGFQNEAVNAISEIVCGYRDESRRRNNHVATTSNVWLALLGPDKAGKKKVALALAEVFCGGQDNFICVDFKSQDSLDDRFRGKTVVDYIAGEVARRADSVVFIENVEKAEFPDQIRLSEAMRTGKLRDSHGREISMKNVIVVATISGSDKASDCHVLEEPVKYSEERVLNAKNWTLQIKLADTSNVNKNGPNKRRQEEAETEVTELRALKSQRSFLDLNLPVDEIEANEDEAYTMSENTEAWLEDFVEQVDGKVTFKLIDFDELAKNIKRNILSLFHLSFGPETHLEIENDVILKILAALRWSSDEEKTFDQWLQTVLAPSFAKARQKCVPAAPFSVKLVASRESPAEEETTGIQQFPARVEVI

Test [4] has as its target T4, SMXL6 (yeast two-hybrid fusion) (Arabidopsis thaliana) (UniProt Q9LML2).
T4 sequence: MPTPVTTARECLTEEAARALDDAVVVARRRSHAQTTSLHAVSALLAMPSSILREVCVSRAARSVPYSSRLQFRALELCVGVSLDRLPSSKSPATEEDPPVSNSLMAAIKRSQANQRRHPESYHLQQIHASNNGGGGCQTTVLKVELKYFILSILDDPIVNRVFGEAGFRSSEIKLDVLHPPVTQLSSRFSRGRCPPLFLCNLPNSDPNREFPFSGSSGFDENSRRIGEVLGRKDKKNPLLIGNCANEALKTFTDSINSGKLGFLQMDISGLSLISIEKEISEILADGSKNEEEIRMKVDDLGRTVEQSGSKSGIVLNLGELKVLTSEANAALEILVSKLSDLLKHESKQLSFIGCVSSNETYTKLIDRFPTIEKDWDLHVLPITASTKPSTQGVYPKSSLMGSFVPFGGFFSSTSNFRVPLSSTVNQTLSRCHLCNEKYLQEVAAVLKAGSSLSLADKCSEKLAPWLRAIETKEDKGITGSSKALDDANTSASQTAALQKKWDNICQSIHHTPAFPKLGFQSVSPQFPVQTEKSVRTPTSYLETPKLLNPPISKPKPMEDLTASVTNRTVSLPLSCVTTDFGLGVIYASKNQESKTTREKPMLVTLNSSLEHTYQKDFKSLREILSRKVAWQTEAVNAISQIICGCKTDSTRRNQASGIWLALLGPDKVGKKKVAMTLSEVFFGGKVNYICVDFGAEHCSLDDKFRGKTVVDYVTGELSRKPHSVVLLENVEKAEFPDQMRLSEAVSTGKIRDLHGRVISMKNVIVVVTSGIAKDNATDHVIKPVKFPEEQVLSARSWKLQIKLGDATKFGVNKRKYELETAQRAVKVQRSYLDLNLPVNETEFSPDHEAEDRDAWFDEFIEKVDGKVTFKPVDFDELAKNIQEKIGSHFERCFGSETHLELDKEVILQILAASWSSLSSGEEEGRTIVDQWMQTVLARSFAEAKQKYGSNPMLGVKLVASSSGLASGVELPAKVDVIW

These are yes or no findings as the source states them, for the method shown. Some binding calls cover weakened binding; strength is not graded here. Where a sequence is shown, tags or fusion partners need not be part of it.

B1: FHY3 (yeast two-hybrid fusion) (protein, UniProt Q9LIE5 1-839)
chain: MDIDLRLHSGDLCKGDDEDRGLDNVLHNEEDMDIGKIEDVSVEVNTDDSVGMGVPTGELVEYTEGMNLEPLNGMEFESHGEAYSFYQEYSRAMGFNTAIQNSRRSKTTREFIDAKFACSRYGTKREYDKSFNRPRARQSKQDPENMAGRRTCAKTDCKASMHVKRRPDGKWVIHSFVREHNHELLPAQAVSEQTRKIYAAMAKQFAEYKTVISLKSDSKSSFEKGRTLSVETGDFKILLDFLSRMQSLNSNFFYAVDLGDDQRVKNVFWVDAKSRHNYGSFCDVVSLDTTYVRNKYKMPLAIFVGVNQHYQYMVLGCALISDESAATYSWLMETWLRAIGGQAPKVLITELDVVMNSIVPEIFPNTRHCLFLWHVLMKVSENLGQVVKQHDNFMPKFEKCIYKSGKDEDFARKWYKNLARFGLKDDQWMISLYEDRKKWAPTYMTDVLLAGMSTSQRADSINAFFDKYMHKKTSVQEFVKVYDTVLQDRCEEEAKADSEMWNKQPAMKSPSPFEKSVSEVYTPAVFKKFQIEVLGAIACSPREENRDATCSTFRVQDFENNQDFMVTWNQTKAEVSCICRLFEYKGYLCRHTLNVLQCCHLSSIPSQYILKRWTKDAKSRHFSGEPQQLQTRLLRYNDLCERALKLNEEASLSQESYNIAFLAIEGAIGNCAGINTSGRSLPDVVTSPTQGLISVEEDNHSRSAGKTSKKKNPTKKRKVNPEQDVMPVAAPESLQQMDKLSPRTVGIESYYGTQQSVQGMVQLNLMGPTRDNFYGNQQTMQGLRQLNSIAPSYDSYYGPQQGIHGQGVDFFRPANFSYDIRDDPNVRTTQLHEDASRHS
As to B1, the binding entry in test [1] is recorded as “no binding”; in test [2], “binds”; in test [3], “no binding”; in test [4], “no binding”.

B2: FAR1 (yeast two-hybrid fusion) (protein, UniProt Q9SWG3 1-827)
chain: MDLQENLVSDAGDDHMVDIVVEPHSNRDIGIVDEFNIGGDVGFSGDLDLEPRNGIDFDTHEAAYIFYQEYAKSMGFTTSIKNSRRSKKTKDFIDAKFACSRYGVTPESESSGSSSRRSTVKKTDCKASMHVKRRPDGKWIIHEFVKDHNHELLPALAYHFRIQRNVKLAEKNNIDILHAVSERTKKMYVEMSRQSGGYKNIGSLLQTDVSSQVDKGRYLALEEGDSQVLLEYFKRIKKENPKFFYAIDLNEDQRLRNLFWADAKSRDDYLSFNDVVSFDTTYVKFNDKLPLALFIGVNHHSQPMLLGCALVADESMETFVWLIKTWLRAMGGRAPKVILTDQDKFLMSAVSELLPNTRHCFALWHVLEKIPEYFSHVMKRHENFLLKFNKCIFRSWTDDEFDMRWWKMVSQFGLENDEWLLWLHEHRQKWVPTFMSDVFLAGMSTSQRSESVNSFFDKYIHKKITLKEFLRQYGVILQNRYEEESVADFDTCHKQPALKSPSPWEKQMATTYTHTIFKKFQVEVLGVVACHPRKEKEDENMATFRVQDCEKDDDFLVTWSKTKSELCCFCRMFEYKGFLCRHALMILQMCGFASIPPQYILKRWTKDAKSGVLAGEGADQIQTRVQRYNDLCSRATELSEEGCVSEENYNIALRTLVETLKNCVDMNNARNNITESNSQLNNGTHEEENQVMAGVKATKKKTVYRKRKGQQEASQMLESQQSLQPMETISSEAMDMNGYYGPQQNVQGLLNLMEPPHEGYYVDQRTIQGLGQLNSIAPAQDSFFTNQQAMSGMVGQIDFRPPPNFTYTLQEEHLSSAQLPGSSSRQL
On to B2, for which the binding result in test [1] is given as “no binding”; in test [2], “binds”; in test [3], “no binding”; in test [4], “no binding”.

These data come from paper PMC7181604, “Arabidopsis FHY3 and FAR1 integrate light and strigolactone signaling to regulate branching”.
